According to article PMC6134199:
Construct, isoform or probe ends are uncertain for at least one entry. For some assays here: No signal at the amounts used counts as a negative. For some assays here: Tags and fusion partners may be left off the protein sequences shown. For some assays here: A weaker result is weaker than the reference pair of the same experiment.

Protein sequences, listed by entry. Tags and fused reporters are not part of them. Lines headed by an entry give the natural chain unless they say otherwise; changes in a name come on top.
UniProt P75811: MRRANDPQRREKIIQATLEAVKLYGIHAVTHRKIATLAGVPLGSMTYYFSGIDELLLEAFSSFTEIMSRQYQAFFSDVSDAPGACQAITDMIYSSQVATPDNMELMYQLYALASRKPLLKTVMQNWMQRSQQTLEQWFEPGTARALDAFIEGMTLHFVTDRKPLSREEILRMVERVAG

How the values were obtained:
Assay in all cases: EMSA
[1] = molecular target: T1, ArcA (Escherichia coli K-12 W3110 type A) (UniProt P0A9Q1); settings: 0.5 pmol each FITC probe + 20 pmol TF (Fig 4: 0-8 pmol) in 10 ul DNA-binding buffer (composition not given, ref 38), 37 C, 20 min, PAGE with mixed probes, recombinant protein, protein details: His, label: FITC
T1 sequence (looked up, limits assumed): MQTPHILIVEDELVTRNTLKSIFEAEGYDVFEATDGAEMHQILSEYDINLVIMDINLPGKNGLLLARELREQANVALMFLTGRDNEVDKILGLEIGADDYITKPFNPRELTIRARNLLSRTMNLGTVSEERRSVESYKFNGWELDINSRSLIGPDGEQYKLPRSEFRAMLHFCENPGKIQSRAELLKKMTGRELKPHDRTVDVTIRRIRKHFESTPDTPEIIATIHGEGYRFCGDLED

[2] = molecular target: T2, CadC (Escherichia coli K-12 W3110 type A) (UniProt P23890); settings: 0.5 pmol each FITC probe + 20 pmol TF (Fig 4: 0-8 pmol) in 10 ul DNA-binding buffer (composition not given, ref 38), 37 C, 20 min, PAGE with mixed probes; recombinant protein; protein details: His; label: FITC
T2 sequence (looked up, limits assumed): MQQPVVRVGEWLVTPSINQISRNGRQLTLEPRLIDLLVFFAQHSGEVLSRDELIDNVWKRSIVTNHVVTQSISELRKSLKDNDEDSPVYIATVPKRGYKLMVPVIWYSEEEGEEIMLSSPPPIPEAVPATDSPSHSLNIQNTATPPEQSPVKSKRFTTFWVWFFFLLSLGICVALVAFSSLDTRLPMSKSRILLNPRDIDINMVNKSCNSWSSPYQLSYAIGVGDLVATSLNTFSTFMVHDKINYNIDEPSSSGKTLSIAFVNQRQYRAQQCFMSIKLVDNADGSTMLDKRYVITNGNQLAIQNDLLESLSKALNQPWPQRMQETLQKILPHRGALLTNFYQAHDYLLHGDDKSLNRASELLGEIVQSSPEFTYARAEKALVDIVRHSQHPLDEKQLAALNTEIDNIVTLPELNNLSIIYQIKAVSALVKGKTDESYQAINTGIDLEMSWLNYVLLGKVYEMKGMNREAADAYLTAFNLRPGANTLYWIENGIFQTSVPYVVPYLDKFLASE

[3] = molecular target: T3, DmlR (Escherichia coli K-12 W3110 type A) (UniProt P76250); settings: 0.5 pmol each FITC probe + 20 pmol TF (Fig 4: 0-8 pmol) in 10 ul DNA-binding buffer (composition not given, ref 38), 37 C, 20 min, PAGE with mixed probes; recombinant protein; protein details: His; label: FITC
T3 sequence (looked up, limits assumed): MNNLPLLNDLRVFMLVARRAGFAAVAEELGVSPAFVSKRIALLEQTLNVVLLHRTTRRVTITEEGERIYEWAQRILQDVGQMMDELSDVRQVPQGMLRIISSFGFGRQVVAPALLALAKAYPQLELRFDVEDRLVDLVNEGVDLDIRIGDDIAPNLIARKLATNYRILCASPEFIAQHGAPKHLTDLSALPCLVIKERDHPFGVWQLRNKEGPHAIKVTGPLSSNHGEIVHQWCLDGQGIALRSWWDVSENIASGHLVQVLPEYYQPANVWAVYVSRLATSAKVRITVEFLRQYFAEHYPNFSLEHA

[4] = molecular target: T4, QseF (Escherichia coli K-12 W3110 type A) (UniProt P0AFU4); settings: 0.5 pmol each FITC probe + 20 pmol TF (Fig 4: 0-8 pmol) in 10 ul DNA-binding buffer (composition not given, ref 38), 37 C, 20 min, PAGE with mixed probes; recombinant protein; protein details: His; label: FITC
T4 sequence (looked up, limits assumed): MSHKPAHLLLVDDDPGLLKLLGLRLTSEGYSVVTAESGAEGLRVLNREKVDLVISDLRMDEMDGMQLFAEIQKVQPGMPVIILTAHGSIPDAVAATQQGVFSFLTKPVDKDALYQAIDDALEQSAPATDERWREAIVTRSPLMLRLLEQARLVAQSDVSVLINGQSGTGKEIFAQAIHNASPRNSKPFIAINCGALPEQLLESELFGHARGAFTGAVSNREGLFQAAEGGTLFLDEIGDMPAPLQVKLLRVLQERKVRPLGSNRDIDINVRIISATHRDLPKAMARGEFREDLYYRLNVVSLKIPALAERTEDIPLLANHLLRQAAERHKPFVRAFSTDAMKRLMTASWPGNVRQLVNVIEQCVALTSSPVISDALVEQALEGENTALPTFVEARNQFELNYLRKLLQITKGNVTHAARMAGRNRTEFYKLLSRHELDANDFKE

[5] = molecular target: RcdA (Escherichia coli K-12 W3110 type A) (UniProt P75811); settings: 0.5 pmol each FITC probe + 20 pmol TF (Fig 4: 0-8 pmol) in 10 ul DNA-binding buffer (composition not given, ref 38), 37 C, 20 min, PAGE with mixed probes, recombinant protein, protein details: His, label: FITC
[6] = molecular target: T5, SdiA (Escherichia coli K-12 W3110 type A) (UniProt P07026); settings: 0.5 pmol each FITC probe + 20 pmol TF (Fig 4: 0-8 pmol) in 10 ul DNA-binding buffer (composition not given, ref 38), 37 C, 20 min, PAGE with mixed probes, recombinant protein, protein details: His, label: FITC
T5 sequence (looked up, limits assumed): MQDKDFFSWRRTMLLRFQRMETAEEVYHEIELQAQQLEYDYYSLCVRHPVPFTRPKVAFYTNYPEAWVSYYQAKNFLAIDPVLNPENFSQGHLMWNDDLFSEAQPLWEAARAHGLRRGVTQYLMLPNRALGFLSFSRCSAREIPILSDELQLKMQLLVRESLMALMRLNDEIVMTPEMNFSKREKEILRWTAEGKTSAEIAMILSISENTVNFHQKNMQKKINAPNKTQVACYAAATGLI

[7] = molecular target: T6, YfeR (Escherichia coli K-12 W3110 type A) (UniProt P0ACR7); settings: 0.5 pmol each FITC probe + 20 pmol TF (Fig 4: 0-8 pmol) in 10 ul DNA-binding buffer (composition not given, ref 38), 37 C, 20 min, PAGE with mixed probes; recombinant protein; protein details: His; label: FITC
T6 sequence (looked up, limits assumed): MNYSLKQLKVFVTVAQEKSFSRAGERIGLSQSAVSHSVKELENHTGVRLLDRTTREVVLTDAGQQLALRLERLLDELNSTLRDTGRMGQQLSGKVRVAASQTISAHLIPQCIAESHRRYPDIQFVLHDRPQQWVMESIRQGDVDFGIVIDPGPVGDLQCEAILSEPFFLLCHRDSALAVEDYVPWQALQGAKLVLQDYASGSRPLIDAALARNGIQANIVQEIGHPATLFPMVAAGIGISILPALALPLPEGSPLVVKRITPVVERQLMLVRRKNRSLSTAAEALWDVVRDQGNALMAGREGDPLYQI

[8] = 10 mM acetyl phosphate (AcP), decreased binding
[9] = 10 mM acetate, increased binding
[10] = 10 mM AI-1 (HSL), decreased binding

| Sequence | binding result [1, 8] | binding result ([1]; no effector) | binding result [2] | binding result [3] | binding result [4] | binding result [5, 9] | binding result ([5]; no effector) | binding result [6, 10] | binding result ([6]; no effector) | binding result [7] |
| --- | --- | --- | --- | --- | --- | --- | --- | --- | --- | --- |
| ATTATAAAGATTTGTAAATATAACCGTCTCCGGTATGTTGCCTGAGGCGGTTTTTTTGTCTCTAACGTGCGGAAAAATTTGTTCCTCTTCACATTTTTTGTACAACCGACATGCCCGTGTAGCTCACAAATATGACAGTGGCGTGAATTTTGCGCATTGACGGCAGTTATGATTCGCGGTATTGCTTAACTGTGATTGCACATTTAGTAATCACTGTTTTCTTTTCCACCAGAAACCAGTATGAGGGAAACGAGGC (double strand) [rmf promoter probe (256 bp)] | binds more weakly | binds | binds | binds | binds | binds | binds | binds more weakly | binds | binds |
| CGTACCGACCCCATATCGTGACGCCGCTGCTGTTGTACTAACCAAACAGGTTCCCCCTGCCATTCGCCGATTTGTAGTGCGCGCTGACCCACAAGATCGAAATTTGCCGCTTCGCCATATGGCAATTCTCCCTTCGGCAACCATAATTTTTGTTCATGGCTGACGACCCACCAGCCGTGATCTAATTTTTCAATTATACGATCCATAGCTCTTGCACTACCTTTGCATCACTGGCATGTTTAACATGGTTTTTACATTTCTCACTGAGCAGTTTTTGAATACAAACTTGCGGAGTCAATC (double strand) [rsd promoter probe (300 bp)] | binds more weakly | binds | binds | no binding | no binding | binds | binds | binds more weakly | binds | no binding |
